PubChem BioAssay AID1159578 | Peter MacCallum Cancer Centre | 2015

Test: 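Knock-downs that alter how fast lymphatic endothelial cells migrate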 (primary screen)
System: human lymphatic endothelial cells
Knock-down reagent: siRNA pool against human genes, 40 nM
Time to read-out: 48 h after transfection
Read-out: 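Cells stained with dye and imaged after a scratch; covered wound area and nuclei counted, duplicates averaged, migration set against mock wells and turned into a robust z-score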
Scale: migration robust z-score: higher = faster migration into the scratch; nuclei per well: higher = more cells in the well
Active means: 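Migration changed when robust z exceeds 2 or falls below -2 and mean nuclei number is at least 3300; otherwise not called changed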
Calls: active = migration changed; inactive = no migration change, or too few cells
Shown is an unselected part of about 18,000 reagents. In the full data, about 1,030 (5.7%) were called active. 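Inactive calls also include pools with fewer than 3300 nuclei, whose migration was not assessed.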 Raw values are not corrected between plates. A number with no mark means an inactive call. Not all columns of the deposit are shown. Reagent sequences are not shown.

no.	Gene	migration robust z-score	migration class with cell-count check	nuclei per well, duplicate mean
1	RNF207	0.9	migration z between -2 and 2; enough cells	6326
2	OR6T1	0.26	migration z between -2 and 2; enough cells	5390
3	THAP2	-0.37	migration z between -2 and 2; enough cells	5686
4	TPRG1L	2.14 (active)	migration z above 2; enough cells	4898
5	SRBD1	-1.19	migration z between -2 and 2; enough cells	5506
6	DAB2IP	-0.86	migration z between -2 and 2; enough cells	4632
7	DYNC1LI1	0.83	migration z between -2 and 2; enough cells	5663
8	HPCAL1	-1.6	migration z between -2 and 2; enough cells	4884
9	CDC14A	-1.43	migration z between -2 and 2; enough cells	4725
10	CBLC	-0.52	migration z between -2 and 2; enough cells	4765
11	PSD2	-0.1	migration z between -2 and 2; enough cells	7108
12	NSFL1C	1.39	migration z between -2 and 2; enough cells	5850
13	PUS10	-0.02	migration z between -2 and 2; enough cells	5756
14	ATG13	-0.19	migration z between -2 and 2; enough cells	4863
15	DENND6A	1.02	migration z between -2 and 2; enough cells	6426
16	PITX2	0.24	migration z between -2 and 2; enough cells	5336
17	SDHC	-0.57	migration z between -2 and 2; enough cells	4248
18	QSER1	-0.75	migration z between -2 and 2; enough cells	4584
19	EMID1	0.25	migration z between -2 and 2; enough cells	5174
20	LYLDT1	-2.02 (active)	migration z below -2; enough cells	6002
21	DOCK1	-0.43	migration z between -2 and 2; enough cells	5094
22	NATD1	-0.4	migration z between -2 and 2; enough cells	5976
23	CDKAL1	-0.45	migration z between -2 and 2; enough cells	6641
24	SUPT7L	0.99	migration z between -2 and 2; enough cells	6590
25	KDM4D	0.3	migration z between -2 and 2; enough cells	5230
26	FOXN4	1.34	migration z between -2 and 2; enough cells	6178
27	FNDC7	0.9	migration z between -2 and 2; enough cells	7134
28	CDH4	-0.71	migration z between -2 and 2; enough cells	5944
29	PRB4	-0.04	migration z between -2 and 2; enough cells	6092
30	CCDC116	-0.46	migration z between -2 and 2; enough cells	4764
31	TRIM51EP	-0.52	migration z between -2 and 2; enough cells	6550
32	ETV5	-0.73	migration z between -2 and 2; enough cells	5664
33	TAMM41	1.44	migration z between -2 and 2; enough cells	6454
34	CBLN4	-0.89	migration z between -2 and 2; enough cells	4210
35	ISX	0.65	migration z between -2 and 2; enough cells	6513
36	SUPT20H	-1.39	migration z between -2 and 2; enough cells	5690
37	SYTL1	-0.18	migration z between -2 and 2; enough cells	5826
38	NKX2-2	0.15	migration z between -2 and 2; enough cells	7335
39	RAC2	-0.7	migration z between -2 and 2; enough cells	5586

6 entries from above in another layout:
{"Gene": "CDKAL1", "migration robust z-score": -0.45, "migration class with cell-count check": "migration z between -2 and 2; enough cells", "nuclei per well, duplicate mean": 6641}
{"Gene": "SUPT7L", "migration robust z-score": 0.99, "migration class with cell-count check": "migration z between -2 and 2; enough cells", "nuclei per well, duplicate mean": 6590}
{"Gene": "KDM4D", "migration robust z-score": 0.3, "migration class with cell-count check": "migration z between -2 and 2; enough cells", "nuclei per well, duplicate mean": 5230}
{"Gene": "FOXN4", "migration robust z-score": 1.34, "migration class with cell-count check": "migration z between -2 and 2; enough cells", "nuclei per well, duplicate mean": 6178}
{"Gene": "FNDC7", "migration robust z-score": 0.9, "migration class with cell-count check": "migration z between -2 and 2; enough cells", "nuclei per well, duplicate mean": 7134}
{"Gene": "CDH4", "migration robust z-score": -0.71, "migration class with cell-count check": "migration z between -2 and 2; enough cells", "nuclei per well, duplicate mean": 5944}
